# Reference: patent US20100258138A1, “RADIOLABELED 1-ACETATE PET IMAGING FOR RA[…] HEAD AND NECK CANCER” (priority 2006, published 2010)
# Tested on: lymph node metastases of head and neck squamous cell carcinoma
# Assay: ACE-PET imaging of metastases
# Type: in vivo, human
# Procedure: None of the patients suffered from diabetes. […] All patients participating in the study provided informed consent.
# Six patients were studied with dedicated PET and four patients were investigated with PET/CT. A 32 minutes dynamic emission scan was performed immediately after intravenous injection of 10 MBq/kg body weight ACE. The scan time was 12×5s, 6×10s, 4×30s, 4×60s, 2×120s and 4×300s. Frame 30 (17-22 minutes after injection) generally provided the best image quality with highest tumor to background ratio and was therefore chosen for subsequent data analysis.
# Isoactivity pixel value=(MPVtumor+APVbackground)×50%
compound,measurement,setting,value
"C[11C](=O)O [ACE, ^11C-acetate]",lymph node metastases detected by ACE-PET,21 metastatic lesions in seven patients,20/21
same,ACE-PET Volumes (cc),"individual metastasis, 50% threshold isoactivity delineation",2.2 cc and 1.8 cc (3×) and 1.9 cc and 101.0 cc and 1.4 cc (2×) and 1.5 cc (2×) and 1.7 cc and 4.6 cc and 3.5 cc and 14.5 cc (2×) and 4.8 cc and 1.1 cc and 1.6 cc and 0.8 cc and 1.2 cc
same,median volumes of lymph node metastases drawn by ACE,median±interquartile,2.9±10.3 cc
same,volumes of metastases larger drawn by ACE compared to FDG,p=0.005,23%

# Several values for one entry are separate records, joined by “and”; a condition that tells them apart may be missing. Equal entries are not always repeated.
